Measured values reported in PubChem BioAssay AID248 (DTP/NCI, 2004).
The list shows only some results of the screen, not a fair sample: it is rich in T/C values a quarter to a half above the control, in often repeated tests (any T/C) and in doses without a T/C. Other doses and runs of a compound stand elsewhere. T/C gives the treated animals as a percentage of the vehicle group. Some doses have a count of surviving animals in place of a T/C: the source files T/C as zero there, which appears to mark a toxic dose or a test without result, not a measured value. Some doses without a T/C left all or most animals alive at the check, yet need not have been tolerated: the source hardly ever lists a survival T/C far under the control, and the zero likely stands for such cases as well. Survivors were counted at the toxicity check, usually on the fifth day, unless a day is given; later deaths do not show. Schedules are NCI's codes, read here as Q, the interval in days (D) or hours (H), X, the number of doses. Some schedule codes hold Z or #, which are not explained here. Some entries hold several experiments; the results are listed from low to high. For survival time, this PubChem deposit counts one and a half times the control or more as active, and values a quarter to a half above the control carry no call in these data; other NCI protocols may use other cut-offs. Marks such as (2×) say how often a value occurs here.

Tested on: L1210 leukemia ip in BDF1 mice, survival T/C
Test: NCI In Vivo Anticancer Drug Screen. Data for tumor model L1210 Leukemia (intraperitoneal) in B6D2F1 (BDF1) mice
Settings: T/C endpoint: mean survival time, higher T/C = longer survival
[1] = dose: 400.0 mg/kg/injection, schedule: Q01DX009 (ip), vehicle: Klucel (hydroxypropylcellulose) (HPC)
[2] = dose: 200.0 mg/kg/injection, schedule: Q04DX003 (ip), vehicle: saline
[3] = dose: 400.0 mg/kg/injection, schedule: Q04DX003 (ip), vehicle: saline
[4] = dose: 25.0 mg/kg/injection, schedule: Q04DX002 (ip), vehicle: saline with Tween-80
[5] = dose: 200.0 mg/kg/injection, schedule: Q04DX002 (ip), vehicle: saline with Tween-80
[6] = dose: 200.0 mg/kg/injection, schedule: Q01DX001 (ip), vehicle: saline
[7] = dose: 400.0 mg/kg/injection, schedule: Q01DX001 (ip), vehicle: saline
[8] = dose: 200.0 mg/kg/injection, schedule: Q04DX003 (ip), vehicle: saline with Tween-80
[9] = dose: 10.0 mg/kg/injection, schedule: Q01DX015 (ip), vehicle: water
[10] = dose: 10.0 mg/kg/injection, schedule: Q01DX Z (ip), vehicle: water
[11] = dose: 15.0 mg/kg/injection, schedule: Q01DX Z (ip), vehicle: water
[12] = dose: 20.0 mg/kg/injection, schedule: Q01DX Z (ip), vehicle: water
[13] = dose: 100.0 mg/kg/injection, schedule: Q01DX009 (ip), vehicle: saline with Tween-80

O=[N+]([O-])c1cccc(C=Nc2cc([N+](=O)[O-])ccc2O)c1
survivor count [1]: 6 of 6

CC1(C)N=C(N)N=C(N)N1c1cccc(CN)c1
survivor count (dose: 200.0 mg/kg/injection, schedule: Q01DX009 (ip), vehicle: saline): 0 of 6
survivor count [2]: 2 of 6
survivor count [3]: 1 of 6

CCCCCCCCCCCCOP(=S)(S)OCCCCCCCCCCCC.[Cd]
survivor count [4]: 1 of 3
survivor count [5]: 3 of 3
survivor count (dose: 400.0 mg/kg/injection, schedule: Q04DX002 (ip), vehicle: saline with Tween-80): 0 of 3

NC(N)=N/N=C/c1cccc(Cl)c1
survivor count (dose: 60.0 mg/kg/injection, schedule: Q01DX Z (ip), vehicle: saline): 3 of 6
survivor count (dose: 120.0 mg/kg/injection, schedule: Q01DX Z (ip), vehicle: saline): 0 of 6

O=C(O)CCS
survivor count (dose: 100.0 mg/kg/injection, schedule: Q01DX001 (ip), vehicle: saline): 0 of 4
survivor count [6]: 0 of 4
survivor count [7]: 0 of 4

F[C](F)(F)[Hg][Br]
survivor count [4]: 0 of 3
survivor count (dose: 50.0 mg/kg/injection, schedule: Q04DX002 (ip), vehicle: saline with Tween-80): 0 of 3
survivor count (dose: 100.0 mg/kg/injection, schedule: Q04DX002 (ip), vehicle: saline with Tween-80): 0 of 3

CCN(CCCl)CCNc1c2ccccc2nc2c1ccc1ccccc12
survivor count (dose: 9.0 mg/kg/injection, schedule: Q01DX009 (ip), vehicle: saline): 3 of 6
survivor count (dose: 18.0 mg/kg/injection, schedule: Q01DX009 (ip), vehicle: saline): 2 of 6
survivor count (dose: 27.0 mg/kg/injection, schedule: Q01DX009 (ip), vehicle: saline): 1 of 6
survivor count (dose: 36.0 mg/kg/injection, schedule: Q01DX009 (ip), vehicle: saline): 1 of 6

CC(=O)OC(C)(C)/C=C/C(=O)[C@](C)(O)[C@H]1[C@H](O)C[C@@]2(C)[C@@H]3CC=C4[C@@H](CC[C@H](O)C4(C)C)[C@]3(CO)C(=O)C[C@]12C
survivor count (dose: 2.0 mg/kg/injection, schedule: Q01DX Z (ip), vehicle: saline): 2 of 6

ClC(Cl)(Cl)c1nc2nccnc2[nH]1
survivor count (dose: 200.0 mg/kg/injection, schedule: Q04DX003 (ip), vehicle: saline sonified): 4 of 6
survivor count (dose: 400.0 mg/kg/injection, schedule: Q04DX003 (ip), vehicle: saline sonified): 2 of 6

N#CCc1nc2ccccc2[nH]1
survivor count (dose: 200.0 mg/kg/injection, schedule: Q01DX001 (ip), vehicle: Klucel (hydroxypropylcellulose) (HPC)): 1 of 3
survivor count (dose: 400.0 mg/kg/injection, schedule: Q01DX001 (ip), vehicle: Klucel (hydroxypropylcellulose) (HPC)): 0 of 3
survivor count (dose: 400.0 mg/kg/injection, schedule: Q04DX003 (ip), vehicle: Klucel (hydroxypropylcellulose) (HPC)): 1 of 6

CCCCCCCCCCCCCCCCCOc1ccc2ccccc2c1
survivor count (dose: 400.0 mg/kg/injection, schedule: Q01DX001 (ip), vehicle: saline with Tween-80): 6 of 6

CC(C)C1=CC2=CCC3C(C)(C#N)CCCC3(C)C2CC1CC#N (configuration not stated)
survivor count [8]: 6 of 6

COC(=O)c1ccccc1NC(=O)Nc1cccc(Cl)c1C
survivor count [1]: 0 of 6

O=C1C2CCCCC1C(N1CCCC1)CC2 (configuration not stated)
survivor count (dose: 400.0 mg/kg/injection, schedule: Q01DX009 (sc), vehicle: olive oil, sesame oil, peanut oil): 4 of 6

CC1CC(C)CC(C(O)C2CCCCC2)C1 (configuration not stated)
survivor count (dose: 300.0 mg/kg/injection, schedule: Q01DX001 (ip), vehicle: other): 1 of 6

CCCCCCN1CCCC(OC(=O)N(C)C)C1 (configuration not stated)
survivor count (dose: 200.0 mg/kg/injection, schedule: Q04DX002 (ip), vehicle: saline): 0 of 3
survivor count (dose: 400.0 mg/kg/injection, schedule: Q04DX002 (ip), vehicle: saline): 0 of 3

Nc1nc(=S)[nH]c(N)c1N
survivor count (dose: 250.0 mg/kg/injection, schedule: Q01DX Z (ip), vehicle: methylcellulose (MC)): 2 of 6
survivor count (dose: 500.0 mg/kg/injection, schedule: Q01DX Z (ip), vehicle: methylcellulose (MC)): 3 of 6

C1CCC(C2CCC(C3CCCCC3)CC2)CC1 (configuration not stated)
survivor count [7]: 2 of 4

C[C@@H]1C[C@@]2(C)[C@@H](CC[C@@H]3[C@@H]2CC[C@]2(C)OC(=O)CC[C@@H]32)CC1=O
survivor count (dose: 400.0 mg/kg/injection, schedule: Q04DX003 (ip), vehicle: other): 6 of 6

COc1cc2c3c(c4ccc(O)cc4c2cc1OC)[C@@H](O)[C@@H]1CCCN1C3
T/C (dose: 5.0 mg/kg/injection, schedule: Q01DX Z (ip), vehicle: water): 125 (2×) and 130 % of control
T/C (dose: 6.0 mg/kg/injection, schedule: Q01DX Z (ip), vehicle: water): 140 % of control
survivor count (dose: 7.0 mg/kg/injection, schedule: Q01DX Z (ip), vehicle: water): 0 of 6
T/C (dose: 9.0 mg/kg/injection, schedule: Q01DX Z (ip), vehicle: water): 128 % of control
T/C [9]: 137 % of control
survivor count [9]: 3 of 6
T/C [10]: 130, 132, 145 % of control
survivor count [10]: 0 of 6 and 5 of 6
T/C (dose: 10.0 mg/kg/injection, schedule: Q02DX005 (ip), vehicle: water): 130 % of control
survivor count (dose: 10.7 mg/kg/injection, schedule: Q01DX015 (ip), vehicle: water): 0 of 6
T/C (dose: 12.0 mg/kg/injection, schedule: Q01DX Z (ip), vehicle: water): 136 % of control
T/C [11]: 131, 145, 153 % of control
survivor count [11]: 0 of 6
survivor count (dose: 16.0 mg/kg/injection, schedule: Q01DX015 (ip), vehicle: water): 0 of 6
T/C (dose: 20.0 mg/kg/injection, schedule: Q01DX005 (ip), vehicle: water): 125 % of control
survivor count (dose: 20.0 mg/kg/injection, schedule: Q01DX015 (ip), vehicle: water): 0 of 6
T/C [12]: 148 % of control
survivor count [12]: 0 of 6
T/C (dose: 20.0 mg/kg/injection, schedule: Q02DX005 (ip), vehicle: water): 135 % of control
survivor count (dose: 24.0 mg/kg/injection, schedule: Q01DX015 (ip), vehicle: water): 0 of 6
survivor count (dose: 40.0 mg/kg/injection, schedule: Q01DX009 (oral), vehicle: water): 6 of 6
survivor count (dose: 40.0 mg/kg/injection, schedule: Q01DX015 (ip), vehicle: water): 0 of 6

CCCCCCNC(=O)NC
survivor count [1]: 0 of 6

Cc1cccc[n+]1CC(=O)c1ccccc1
survivor count [2]: 0 of 3
survivor count [3]: 0 of 3

ON(C(=Nc1ccccc1)c1ccccc1)c1ccccc1
survivor count [6]: 0 of 4
survivor count [7]: 0 of 4

O=C(CBr)CC(=O)Nc1ccccc1
survivor count [13]: 4 of 6

CN1CCCC(C)(CN2c3ccccc3Sc3ccccc32)C1 (configuration not stated)
survivor count [3]: 3 of 6

CSC(=N)c1cccc(OCCCc2ccccc2)c1
survivor count [13]: 3 of 6
survivor count (dose: 400.0 mg/kg/injection, schedule: Q01DX009 (ip), vehicle: saline with Tween-80): 1 of 6

N#CC(C#N)=Cc1ccnc2ccccc12
survivor count [8]: 0 of 6
survivor count (dose: 400.0 mg/kg/injection, schedule: Q04DX003 (ip), vehicle: saline with Tween-80): 0 of 6

NNc1nc2ccccc2s1
survivor count (dose: 100.0 mg/kg/injection, schedule: Q01DX009 (ip), vehicle: Klucel (hydroxypropylcellulose) (HPC)): 3 of 6
survivor count (dose: 200.0 mg/kg/injection, schedule: Q01DX009 (ip), vehicle: Klucel (hydroxypropylcellulose) (HPC)): 0 of 6

COc1ccc(-c2sc(/N=C/c3cc(OC)c(OC)c(OC)c3)c(C#N)c2C)cc1OC
survivor count [5]: 3 of 3
